Test results: paper PMC6057467
No constants are given. Whether binding was seen depends on the method and setting.

Legend:
[1] = target: human Acinus RNA recognition motif domain (AcRRM) (human) (UniProt Q9UKV3); assay: SEC; Superdex 75 10/300 GL, 50 mM Hepes-NaOH pH 8, 100 mM NaCl, reducing conditions (AcRRM in 1 mM or 10 mM DTT, column with 1 mM DTT); both purified
[2] = target: human Acinus RNA recognition motif domain (AcRRM) (human) (UniProt Q9UKV3); assay: crystal structure; X-ray, 1.65 Å, space group P212121, two monomers in the asymmetric unit linked by a C1083-C1083 disulfide bond; crystals from 0.2 M ammonium acetate, 100 mM Tris-HCl pH 8.5, 25% PEG 3,350, 18 °C; both purified

B1: human Acinus RNA recognition motif domain (AcRRM) (domain or fragment, UniProt Q9UKV3 1008-1100)
chain: GSGKISNIVHISNLVRPFTLGQLKELLGRTGTLVEEAFWIDKIKSHCFVTYSTVEEAVATRTALHGVKWPQSNPKFLCADYAEQDELDYHRGLLV
For B1, the binding [1] was “no binding (condition: in reducing conditions (DTT))” and the binding [2] was “no binding”.
